Measurements reported in the supplement of paper PMC12067093, “Discovery and optimisation of a covalent ligand for TRIM25 and its application to targeted protein ubiquitination” (Chemical Science, 2025).
The list shows a part of the results.

The chains behind the UniProt entries cited, without tags or fusion partners. Where a name states a change or a piece, a line headed by the entry shows the natural chain unless it says otherwise.
UniProt Q9NUJ1: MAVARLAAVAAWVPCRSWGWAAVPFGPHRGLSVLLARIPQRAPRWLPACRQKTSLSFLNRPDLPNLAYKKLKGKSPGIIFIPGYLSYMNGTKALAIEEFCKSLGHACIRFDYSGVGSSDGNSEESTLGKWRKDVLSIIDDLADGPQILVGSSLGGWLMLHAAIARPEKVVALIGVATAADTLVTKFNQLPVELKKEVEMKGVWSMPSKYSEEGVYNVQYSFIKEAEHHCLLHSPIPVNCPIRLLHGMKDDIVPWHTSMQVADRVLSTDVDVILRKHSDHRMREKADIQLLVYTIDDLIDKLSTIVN
UniProt Q9H845: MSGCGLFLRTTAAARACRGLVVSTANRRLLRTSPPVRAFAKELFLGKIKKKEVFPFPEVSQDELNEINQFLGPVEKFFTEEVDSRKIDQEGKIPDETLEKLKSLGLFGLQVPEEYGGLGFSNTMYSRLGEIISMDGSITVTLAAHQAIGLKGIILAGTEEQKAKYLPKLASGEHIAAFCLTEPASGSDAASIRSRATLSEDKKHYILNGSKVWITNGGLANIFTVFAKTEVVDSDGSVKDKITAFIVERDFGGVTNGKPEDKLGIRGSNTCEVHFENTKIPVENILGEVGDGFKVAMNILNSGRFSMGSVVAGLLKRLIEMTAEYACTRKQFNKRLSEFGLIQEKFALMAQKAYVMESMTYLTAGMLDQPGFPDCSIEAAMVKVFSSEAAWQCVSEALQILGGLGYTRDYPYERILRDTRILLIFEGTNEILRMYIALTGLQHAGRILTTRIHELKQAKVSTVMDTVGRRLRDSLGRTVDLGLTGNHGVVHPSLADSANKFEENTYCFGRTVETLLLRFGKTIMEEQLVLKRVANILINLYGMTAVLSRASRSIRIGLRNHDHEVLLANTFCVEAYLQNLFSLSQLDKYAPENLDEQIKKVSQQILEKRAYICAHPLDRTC
UniProt O15439: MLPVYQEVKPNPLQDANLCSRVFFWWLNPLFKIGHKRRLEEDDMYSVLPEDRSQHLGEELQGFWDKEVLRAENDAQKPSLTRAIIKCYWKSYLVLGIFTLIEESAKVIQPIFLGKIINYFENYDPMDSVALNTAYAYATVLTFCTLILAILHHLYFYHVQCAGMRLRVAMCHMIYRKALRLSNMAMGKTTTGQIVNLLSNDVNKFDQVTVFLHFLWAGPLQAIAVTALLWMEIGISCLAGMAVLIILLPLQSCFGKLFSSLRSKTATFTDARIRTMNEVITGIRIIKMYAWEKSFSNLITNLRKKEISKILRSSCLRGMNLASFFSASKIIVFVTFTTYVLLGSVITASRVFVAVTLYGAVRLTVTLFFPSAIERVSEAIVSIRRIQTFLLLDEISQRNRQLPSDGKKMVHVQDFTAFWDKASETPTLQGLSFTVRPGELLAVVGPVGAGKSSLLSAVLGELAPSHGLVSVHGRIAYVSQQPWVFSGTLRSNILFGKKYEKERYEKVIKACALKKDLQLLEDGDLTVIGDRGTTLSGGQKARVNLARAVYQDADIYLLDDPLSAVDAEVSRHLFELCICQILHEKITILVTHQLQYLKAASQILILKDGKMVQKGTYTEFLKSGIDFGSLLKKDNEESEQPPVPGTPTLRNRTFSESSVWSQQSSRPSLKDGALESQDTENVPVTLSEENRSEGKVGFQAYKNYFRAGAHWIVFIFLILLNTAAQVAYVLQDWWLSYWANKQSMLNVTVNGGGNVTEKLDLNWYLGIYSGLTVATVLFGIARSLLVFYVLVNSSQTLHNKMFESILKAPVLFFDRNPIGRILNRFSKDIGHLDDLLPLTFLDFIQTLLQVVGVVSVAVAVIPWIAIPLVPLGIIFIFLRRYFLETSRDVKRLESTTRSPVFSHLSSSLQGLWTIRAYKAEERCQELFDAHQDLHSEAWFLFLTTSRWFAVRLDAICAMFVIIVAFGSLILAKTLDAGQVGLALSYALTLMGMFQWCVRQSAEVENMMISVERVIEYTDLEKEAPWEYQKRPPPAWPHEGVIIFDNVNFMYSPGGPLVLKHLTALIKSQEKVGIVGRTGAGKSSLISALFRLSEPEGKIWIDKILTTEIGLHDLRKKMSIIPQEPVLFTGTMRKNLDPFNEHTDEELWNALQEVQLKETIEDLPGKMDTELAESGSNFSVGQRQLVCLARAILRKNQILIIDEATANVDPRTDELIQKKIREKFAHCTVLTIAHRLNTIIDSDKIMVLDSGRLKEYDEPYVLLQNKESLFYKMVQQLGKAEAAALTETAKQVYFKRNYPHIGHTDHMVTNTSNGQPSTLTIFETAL
UniProt Q8N2K0: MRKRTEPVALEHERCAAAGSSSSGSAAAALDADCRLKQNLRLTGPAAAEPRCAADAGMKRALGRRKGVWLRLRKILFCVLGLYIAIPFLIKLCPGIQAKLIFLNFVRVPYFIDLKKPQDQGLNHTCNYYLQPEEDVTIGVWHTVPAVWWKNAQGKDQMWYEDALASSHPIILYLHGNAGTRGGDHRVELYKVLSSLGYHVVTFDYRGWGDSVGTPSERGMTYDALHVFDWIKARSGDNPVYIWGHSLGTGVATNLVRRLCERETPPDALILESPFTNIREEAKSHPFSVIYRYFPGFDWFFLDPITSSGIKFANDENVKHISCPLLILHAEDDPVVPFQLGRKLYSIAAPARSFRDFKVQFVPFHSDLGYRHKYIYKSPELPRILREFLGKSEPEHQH
UniProt Q9H7C9: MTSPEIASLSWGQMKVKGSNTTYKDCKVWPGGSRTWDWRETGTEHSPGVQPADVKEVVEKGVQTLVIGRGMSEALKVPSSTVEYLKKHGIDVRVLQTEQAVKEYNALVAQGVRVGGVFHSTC
UniProt Q86V21: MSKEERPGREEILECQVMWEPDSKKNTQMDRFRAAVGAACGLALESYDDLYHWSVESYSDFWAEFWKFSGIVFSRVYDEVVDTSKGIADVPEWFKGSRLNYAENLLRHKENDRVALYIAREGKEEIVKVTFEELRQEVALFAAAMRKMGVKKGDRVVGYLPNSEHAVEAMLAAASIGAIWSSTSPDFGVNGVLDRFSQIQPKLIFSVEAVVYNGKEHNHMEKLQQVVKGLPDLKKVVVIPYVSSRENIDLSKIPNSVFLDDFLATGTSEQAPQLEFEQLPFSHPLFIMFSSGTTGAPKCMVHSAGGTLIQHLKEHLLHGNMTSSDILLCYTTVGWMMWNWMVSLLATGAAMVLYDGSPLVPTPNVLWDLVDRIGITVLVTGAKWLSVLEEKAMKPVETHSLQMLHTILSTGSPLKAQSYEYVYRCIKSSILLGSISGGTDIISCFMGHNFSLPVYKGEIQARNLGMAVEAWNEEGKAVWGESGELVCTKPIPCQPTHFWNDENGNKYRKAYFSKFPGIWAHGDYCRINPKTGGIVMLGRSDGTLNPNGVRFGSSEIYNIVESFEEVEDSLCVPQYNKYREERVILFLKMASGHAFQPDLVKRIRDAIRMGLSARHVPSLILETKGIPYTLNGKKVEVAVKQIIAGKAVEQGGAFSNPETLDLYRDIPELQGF
UniProt Q2M2I8: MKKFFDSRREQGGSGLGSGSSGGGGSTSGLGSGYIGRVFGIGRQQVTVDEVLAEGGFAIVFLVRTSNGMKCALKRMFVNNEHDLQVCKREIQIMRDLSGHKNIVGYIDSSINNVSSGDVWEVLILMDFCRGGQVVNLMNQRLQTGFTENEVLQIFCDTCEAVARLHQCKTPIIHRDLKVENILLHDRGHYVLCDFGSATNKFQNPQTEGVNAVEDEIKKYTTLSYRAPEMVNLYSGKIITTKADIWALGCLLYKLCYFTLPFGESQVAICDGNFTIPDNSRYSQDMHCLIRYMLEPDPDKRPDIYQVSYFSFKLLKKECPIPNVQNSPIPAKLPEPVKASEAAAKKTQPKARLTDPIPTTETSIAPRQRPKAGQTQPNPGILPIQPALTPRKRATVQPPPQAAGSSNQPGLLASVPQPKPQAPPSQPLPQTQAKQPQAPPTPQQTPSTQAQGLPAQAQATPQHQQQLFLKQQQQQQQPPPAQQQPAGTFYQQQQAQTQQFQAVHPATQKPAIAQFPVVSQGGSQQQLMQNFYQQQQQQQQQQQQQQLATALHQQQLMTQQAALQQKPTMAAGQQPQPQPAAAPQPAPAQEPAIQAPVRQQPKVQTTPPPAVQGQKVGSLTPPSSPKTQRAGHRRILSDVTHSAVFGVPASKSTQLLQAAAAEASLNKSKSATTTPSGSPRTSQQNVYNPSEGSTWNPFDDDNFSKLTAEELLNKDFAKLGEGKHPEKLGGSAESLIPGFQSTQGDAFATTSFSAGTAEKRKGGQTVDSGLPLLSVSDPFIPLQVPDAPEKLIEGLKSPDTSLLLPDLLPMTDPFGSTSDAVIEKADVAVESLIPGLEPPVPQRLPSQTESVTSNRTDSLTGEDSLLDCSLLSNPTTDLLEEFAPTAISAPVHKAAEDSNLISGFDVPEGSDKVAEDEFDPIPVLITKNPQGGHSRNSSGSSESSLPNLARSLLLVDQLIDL
UniProt Q9NRG9: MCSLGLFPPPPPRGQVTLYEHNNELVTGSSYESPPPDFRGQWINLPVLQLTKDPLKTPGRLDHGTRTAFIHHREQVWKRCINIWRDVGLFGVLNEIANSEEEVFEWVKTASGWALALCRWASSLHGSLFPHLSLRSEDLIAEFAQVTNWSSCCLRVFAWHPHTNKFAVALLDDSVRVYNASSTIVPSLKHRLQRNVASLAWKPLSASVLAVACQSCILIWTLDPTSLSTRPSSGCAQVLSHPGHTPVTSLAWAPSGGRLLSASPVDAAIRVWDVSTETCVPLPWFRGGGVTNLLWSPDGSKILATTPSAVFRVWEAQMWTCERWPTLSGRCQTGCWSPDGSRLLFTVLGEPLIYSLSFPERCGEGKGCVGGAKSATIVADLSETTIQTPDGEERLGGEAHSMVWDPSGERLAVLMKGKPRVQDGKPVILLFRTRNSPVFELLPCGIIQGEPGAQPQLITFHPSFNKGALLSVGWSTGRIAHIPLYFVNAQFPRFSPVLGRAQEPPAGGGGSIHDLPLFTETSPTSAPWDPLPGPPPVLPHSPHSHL
UniProt Q9BTE6: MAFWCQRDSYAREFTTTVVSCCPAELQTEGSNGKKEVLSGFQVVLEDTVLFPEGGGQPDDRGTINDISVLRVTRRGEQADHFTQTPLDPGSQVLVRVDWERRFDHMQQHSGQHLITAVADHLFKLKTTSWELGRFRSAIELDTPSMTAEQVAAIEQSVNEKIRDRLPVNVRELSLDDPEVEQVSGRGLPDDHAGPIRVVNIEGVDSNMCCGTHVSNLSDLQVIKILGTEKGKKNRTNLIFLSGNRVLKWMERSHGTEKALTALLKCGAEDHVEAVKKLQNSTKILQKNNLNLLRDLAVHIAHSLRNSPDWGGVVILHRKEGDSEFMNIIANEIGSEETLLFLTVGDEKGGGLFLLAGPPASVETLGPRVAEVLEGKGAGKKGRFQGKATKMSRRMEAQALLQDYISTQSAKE
UniProt O14734: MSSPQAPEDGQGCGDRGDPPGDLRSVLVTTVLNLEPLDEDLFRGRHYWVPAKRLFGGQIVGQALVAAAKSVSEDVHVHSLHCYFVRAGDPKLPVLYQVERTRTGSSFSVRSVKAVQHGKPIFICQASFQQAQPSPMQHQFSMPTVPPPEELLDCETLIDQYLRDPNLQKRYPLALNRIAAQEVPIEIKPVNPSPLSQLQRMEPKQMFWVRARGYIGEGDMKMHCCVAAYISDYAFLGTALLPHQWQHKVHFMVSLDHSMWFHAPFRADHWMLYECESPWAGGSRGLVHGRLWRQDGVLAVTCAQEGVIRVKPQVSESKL
UniProt Q15057: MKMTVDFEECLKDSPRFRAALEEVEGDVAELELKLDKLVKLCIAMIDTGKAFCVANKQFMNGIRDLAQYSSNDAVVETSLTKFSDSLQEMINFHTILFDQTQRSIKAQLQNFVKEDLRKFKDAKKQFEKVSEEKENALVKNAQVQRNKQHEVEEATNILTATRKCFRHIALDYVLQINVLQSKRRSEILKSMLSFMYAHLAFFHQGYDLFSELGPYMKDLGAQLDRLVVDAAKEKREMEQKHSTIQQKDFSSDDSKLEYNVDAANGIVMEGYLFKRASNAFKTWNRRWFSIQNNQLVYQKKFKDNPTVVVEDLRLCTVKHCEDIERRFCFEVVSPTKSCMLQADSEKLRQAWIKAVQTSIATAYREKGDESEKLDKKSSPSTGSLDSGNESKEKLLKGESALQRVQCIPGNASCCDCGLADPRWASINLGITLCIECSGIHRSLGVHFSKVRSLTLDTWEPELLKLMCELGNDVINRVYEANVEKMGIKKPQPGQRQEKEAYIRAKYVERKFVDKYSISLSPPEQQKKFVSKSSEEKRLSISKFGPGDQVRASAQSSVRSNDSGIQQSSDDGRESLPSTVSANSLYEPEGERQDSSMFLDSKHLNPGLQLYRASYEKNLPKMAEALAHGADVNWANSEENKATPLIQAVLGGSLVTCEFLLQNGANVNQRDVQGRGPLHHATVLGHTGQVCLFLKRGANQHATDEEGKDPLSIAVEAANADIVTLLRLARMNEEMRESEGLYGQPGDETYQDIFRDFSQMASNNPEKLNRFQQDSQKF

Compound: Cc1cc(ccc1-c1ccccc1)C(=O)N1CCCN(CC1)C(=O)CCl [compound 10]
Experiment: probe-labelled cysteine peptide fold change vs DMSO (competition) (log2 fold change); higher = less target engagement (more negative = stronger competition)
Conditions: THP-1, incubation time: 4 h
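Further: competitive profiling in live THP-1 cells: cysteine peptides tagged with an iodoacetamide desthiobiotin (IA-DTB) probe, intensity after compound treatment relative to DMSO-treated cells.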

Row | Target | probe-labelled cysteine peptide fold change (10 µM) | probe-labelled cysteine peptide fold change (50 µM)
1 | ACLY_P53396_519_AVQGMLDFDYVCSRDEPSVAAMVYPFTGDHK (UniProt P53396) | -0.324 | -0.296
2 | ACAT2_Q9BWD1_158_IGEMPLTDSILCDGLTDAFHNCHMGITAENVAK (UniProt Q9BWD1) | -0.0316 | -0.347
3 | AARS_P49588_184+187_DNFWEMGDTGPCGPCSEIHYDR (UniProt P49588) | 0.108 | -0.387
4 | ACAT2_Q9BWD1_65_ATVAPEDVSEVIFGHVLAAGCGQNPVR (UniProt Q9BWD1) | -0.23 | 0.0508
5 | ABHD10_Q9NUJ1_100_ALAIEEFCK (UniProt Q9NUJ1) | -0.122 | 0.0345
6 | ACAD9_Q9H845_613_RAYICAHPLDR (UniProt Q9H845) | -0.264 | 0.131
7 | ABCE1_P61221_227_FACAVVCIQK (UniProt P61221) | -0.0881 | -0.36
8 | ACBD6_Q9BR61_166_NIFDYCR (UniProt Q9BR61) | 0.0331 | -0.103
9 | ABCC4_O15439_1226_FAHCTVLTIAHR (UniProt O15439) | -0.12 | -0.13
10 | ABHD12_Q8N2K0_323_HISCPLLILHAEDDPVVPFQLGR (UniProt Q8N2K0) | 0.128 | 0.089
11 | ABCE1_P61221_65_KCPFGALSIVNLPSNLEK (UniProt P61221) | -0.091 | -0.211
12 | AARS_P49588_671_AVYTQDCPLAAAK (UniProt P49588) | 0.0633 | 0.0515
13 | ACOT9_Q9Y305_128_ILEDLDSLGVLICYMHNK (UniProt Q9Y305) | 0.118 | 0.23
14 | AAMDC_Q9H7C9_122_VGGVFHSTC (UniProt Q9H7C9) | -0.142 | 0.0875
15 | ACBD3_Q9H3P7_169_CCHLFSTYVASHK (UniProt Q9H3P7) | 0.173 | 0.131
16 | AACS_Q86V21_525_FPGIWAHGDYCR (UniProt Q86V21) | 0.162 | -0.0193
17 | AAK1_Q2M2I8_87_MFVNNEHDLQVCK (UniProt Q2M2I8) | -0.079 | 0.0729
18 | ACACA_Q13085_1176_DNTCVVEFQFMLPTSHPNR (UniProt Q13085) | 0.179 | 0.423
19 | ABL1_P00519-2_39_HGGPHCNVFVEHEALQRPVASDFEPQGLSEAAR (UniProt P00519) | -0.213 | -0.213
20 | ACAD9_Q9H845_271_GSNTCEVHFENTK (UniProt Q9H845) | 0.0883 | 0.106
21 | ACADSB_P45954_261_ASSTCPLTFENVK (UniProt P45954) | -0.238 | 0.0954

Row | Target | probe-labelled cysteine peptide fold change (10 µM) | probe-labelled cysteine peptide fold change (50 µM)
22 | AACS_Q86V21_299_CMVHSAGGTLIQHLK (UniProt Q86V21) | -0.266 | 0.176
23 | ABHD15_Q6UXT9_199_GHHGCPLVSPR (UniProt Q6UXT9) | -0.202 | -0.334
24 | ACO2_Q99798_126_VAVPSTIHCDHLIEAQVGGEK (UniProt Q99798) | -0.0826 | -0.0563
25 | ABHD16A_O95870_416_QHLNLNNAEQLCR (UniProt O95870) | -0.0924 | -0.0118
26 | ACACA_Q13085_378_DCSVQR (UniProt Q13085) | 0.0953 | -0.0564
27 | ACAA1_P09110_381_VNPLGGAVALGHPLGCTGAR (UniProt P09110) | 0.0101 | 0.098
28 | A2M_P01023_299_FSGQLNSHGCFYQQVK (UniProt P01023) | 0.0748 | 0.244
29 | ABCD1_P33897_599_EGGWEAMCDWK (UniProt P33897) | -0.0988 | -0.155
30 | AAAS_Q9NRG9_335_CQTGCWSPDGSR (UniProt Q9NRG9) | 0.565 | 0.657
31 | AARS_P49588_723_VVSIGVPVSELLDDPSGPAGSLTSVEFCGGTHLR (UniProt P49588) | 0.243 | 0.318
32 | ACO1_P21399_118_INPVCPADLVIDHSIQVDFNRR (UniProt P21399) | -0.172 | -0.162
33 | ACOT13_Q9NPJ3_74_VEEEHTNAIGTLHGGLTATLVDNISTMALLCTER (UniProt Q9NPJ3) | 0.000386 | 0.204
34 | ABHD6_Q9BV23_217_IPLIPSTPEEMSEMLQLCSYVR (UniProt Q9BV23) | 0.243 | 0.359
35 | AARS_P49588_187_DNFWEMGDTGPCGPCSEIHYDR (UniProt P49588) | -0.232 | 0.00452
36 | ABHD10_Q9NUJ1_229+239_EAEHHCLLHSPIPVNCPIR (UniProt Q9NUJ1) | 0.00339 | 0.027
37 | ABCE1_P61221_65_CPFGALSIVNLPSNLEK (UniProt P61221) | -0.2 | -0.351
38 | AARS_P49588_901_ITCLCQVPQNAANR (UniProt P49588) | 0.173 | -0.279
39 | AARS_P49588_901+903_ITCLCQVPQNAANR (UniProt P49588) | 0.298 | 0.0151
40 | AARSD1_Q9BTE6_266_CGAEDHVEAVK (UniProt Q9BTE6) | -0.0537 | -0.212
41 | ACOT8_O14734_275_ADHWMLYECESPWAGGSR (UniProt O14734) | 0.15 | 0.0534
42 | ACAP2_Q15057_329_FCFEVVSPTK (UniProt Q15057) | 0.23 | 0.177
